Literature values, collected in publication PMC7884382, “A Phase 1 study of RO6870810, a novel bromodomain and extra-terminal protein inhibitor, in patients with NUT carcinoma, other solid tumours, or diffuse large B-cell lymphoma” (British Journal of Cancer, 2020).

Design: method as in PMID 29733771, PMID 32328561
Conditions: cited from earlier work

For `CCNC(=O)C[C@@H]1N=C(c2ccc(Cl)cc2)c2cc(OC)ccc2-n2c(C)nnc21` [molibresib], the Half-life is listed as 3 to 7 h.
